The values below come from PubChem BioAssay AID2685 (National Center for Advancing Translational Sciences (NCATS), 2010).

For orientation: AC50 means the concentration at which the activity in the assay is half-maximal.

The other results are listed elsewhere or left out. Shown are side measurements of this screen, not its main read-out; they come without a call. Compounds called inactive in the main read-out are mostly missing here. The note in brackets gives the kind of curve behind each potency; many fits are weak.

The test can be described thus: qHTS Assay for Lipid Storage Modulators in Drosophila S3 Cells.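 As to cell number change: cells counted by Cell Tracker Red CMTPX staining in the red channel.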 The following applies: BODIPY lipid droplet fluorescence, 18-24 h; for cell number change: measured here: cell count max response, cells fed with added oleic acid. The essentials:
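Laser-scanning cytometry quantifies lipid droplet accumulation (500–530 nm total intensity; droplet/cell object ratio) in oleic acid-fed (400 uM added) Drosophila S3 cells treated with a concentration series. 20 uM Triacsin C defined 100% inhibition.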
For orientation: Quantitative high-throughput screening tests each substance at several concentrations.

[1] abbreviates: measured here: lipid fluorescence (Fed channel) AC50, cells fed with added oleic acid.
Where [2] appears, read: measured here: cell number channel AC50, cells fed with added oleic acid.

In the case of `COC(=O)c1ccc(NC(=O)c2ccc3c(c2)C(=O)N(C)C3=O)cc1`, the cell number change was 10.6%. In addition, under setting [1], the AC50 was 29.1 µM [rising, single point].
Turning to `CCn1c(CC(=O)Nc2ccc(F)cc2)nnc1SCC(=O)N1CCOCC1`, the cell number change is -11.7%.
For the compound `COc1ccc(-c2nc3ccc(N4CCN(C)CC4)cc3c(=O)[nH]2)cc1`, the cell number change was 37.5%. Also, the half-maximal activity concentration (AC50) under setting [1] is 1.16 µM [falling, single point].
As for `Cc1cccc(NC(=O)CSc2nc3c(c(=O)[nH]2)CCCC3)c1C`, the cell number change came out at 42.4%. For the same compound, the concentration at half-maximal activity (AC50) under setting [2] is 2.91 µM [rising, partial curve]. The half-maximal activity concentration (AC50) under setting [1] is 6.51 µM [falling, single point].
Turning to `N=c1c2c(n(Cc3ccc(Br)cc3)c3c1CCC3)CCCC2`, the cell number change is -63.1%. For the same compound, the AC50 under setting [2] was 32.6 µM [falling, single point]. For the same compound, the AC50 under setting [1] was 32.6 µM [falling, single point].
In the case of `CCOc1ccc(-n2c(=O)c3c4c(sc3n(CC(=O)NCC3CCCO3)c2=O)CCCC4)cc1` (configuration not stated), the half-maximal activity concentration (AC50) under setting [2] is 0.366 µM [rising, partial curve, poor fit].
Regarding `CCCCC(=O)N/N=C/c1ccc(Sc2cccc3cccnc23)o1`, the cell number change was -42.8%. Further, under setting [2], the half-maximal activity concentration (AC50) was 29.1 µM [falling, single point].
`Cc1nc(SCCOc2ccccc2)[nH]c(=O)c1Cc1ccccc1`: the cell number change is -19.2%. The AC50 under setting [1] was 1.84 µM [falling, partial curve].
On to `O=C(N/N=C/c1ccccn1)c1cc([N+](=O)[O-])cc([N+](=O)[O-])c1`, for which the cell number change was -12.1%. Also, the concentration at half-maximal activity (AC50) under setting [1] is 0.058 µM [falling, full curve, poor fit].
Turning to `Cc1nnc(N)s1`, the cell number change is -47.6%.
For `CCC(C)[C@H](NC(=O)NCC1CCCO1)C(=O)OC` (some centres not stated), the cell number change is -43.8%. The AC50 under setting [2] was 0.461 µM [falling, full curve, poor fit]. Moreover, the AC50 under setting [1] is 0.411 µM [falling, full curve].
For the compound `O=C(Cn1nnc(-c2ccccc2)n1)NCc1ccc2c(c1)OCO2`, the cell number change is -30.9%. The AC50 under setting [2] is 8.2 µM [falling, partial curve, poor fit]. Besides, the AC50 under setting [1] is 6.51 µM [falling, full curve, poor fit].
Turning to `CCCCCOc1ccc(OC(=O)c2ccncc2)cc1`, the cell number change was -15.6%. Further, the concentration at half-maximal activity (AC50) under setting [1] was 29.1 µM [falling, single point].
For `Cc1ccc(C(=O)Nc2nnc(-c3ccco3)o2)cc1`, the cell number change was 14.4%.
Regarding `O=C(c1c[nH]c2ccc(S(=O)(=O)N3CCOCC3)cc2c1=O)N1CCN(c2ccccn2)CC1`, the cell number change turned out to be 22.9%. In addition, under setting [1], the AC50 was 25.9 µM [rising, single point].
On to `O=C(CCc1nc2sc3c(c2c(=O)[nH]1)CCCC3)NCC(=O)Nc1ccccc1Br`, for which the cell number change was -2.26%. Under setting [1], the AC50 is 0.00411 µM [rising, full curve, poor fit].
